For one compound, T/C and survivor count results are on record in PubChem BioAssay AID256 (DTP/NCI, 2004).

The experiment concerns CD2F1 mice, L1210 leukemia ip, survival T/C. Put plainly: NCI In Vivo Anticancer Drug Screen. Data for tumor model L1210 Leukemia (intraperitoneal) in CD2F1 (CDF1) mice. As to conditions: T/C endpoint: median survival time, higher T/C = longer survival. The procedure, abridged:
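Antitumor effect is scored in animals hosting a serially transplanted tumor. Values compare compound-dosed animals against vehicle-only controls as a simple quotient.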

The list does not hold the whole screen: it is rich in T/C values a quarter to a half above the control, in often repeated tests (any T/C) and in doses without a T/C. Further doses and runs are listed elsewhere. T/C: endpoint of the treated group in % of that of the vehicle group. Some doses have a count of surviving animals in place of a T/C: the source holds a T/C of zero for them, seemingly a mark for toxic or unscored doses. Some doses without a T/C left all or most animals alive at the check, yet need not have been tolerated: survival well below the control is almost never listed, so the zero probably covers shortened survival too. Survivors were counted at the toxicity check, usually on the fifth day, unless a day is given; later deaths do not show. Schedules are NCI's codes, taken here to give the interval after Q, in days (D) or hours (H), and the number of doses after X. Where survival is the endpoint, the PubChem record calls one and a half times the control and up active, and a quarter to a half above the control has no call in these data; cut-offs in other NCI protocols can differ. Some entries hold several experiments; their values stand side by side, smallest first. Some T/C values carry the count of animals alive at the toxicity check (mostly the fifth day); where none is given, no animal had died by that day.

For the compound `CCc1ncnc2cc(OCC3CO3)c(OC)cc12` (configuration not stated), the T/C is, setting by setting: (dose: 10.0 mg/kg/injection, schedule: Q01DX009 (ip), vehicle: other) 145 % of control; (dose: 10.0 mg/kg/injection, schedule: Q03DX003 (ip), vehicle: saline) 126 % of control; (dose: 12.5 mg/kg/injection, schedule: Q01DX009 (ip), vehicle: DMSO) 133 % of control; (dose: 15.0 mg/kg/injection, schedule: Q01DX009 (ip), vehicle: suspension in saline) 133 % of control; (dose: 20.0 mg/kg/injection, schedule: Q01DX001 (ip), vehicle: other) 133 % of control; (dose: 20.0 mg/kg/injection, schedule: Q03DX003 (ip), vehicle: saline) 133 and 135 % of control. For the same compound, the T/C is 133 % of control (dose: 20.0 mg/kg/injection, schedule: Q04DX003 (ip), vehicle: other); 135 % of control (dose: 25.0 mg/kg/injection, schedule: Q01DX009 (ip), vehicle: DMSO); 126 % of control (dose: 25.0 mg/kg/injection, schedule: Q01DX009 (ip), vehicle: saline with Tween-80); 131 % of control (dose: 25.0 mg/kg/injection, schedule: Q01DX009 (ip), vehicle: saline); 134 % of control [5 of 6 alive] (dose: 30.0 mg/kg/injection, schedule: Q01DX009 (ip), vehicle: suspension in saline); 145 % of control (dose: 40.0 mg/kg/injection, schedule: Q01DX001 (ip), vehicle: other). Moreover, the T/C runs as follows: (dose: 40.0 mg/kg/injection, schedule: Q01DX001 (ip), vehicle: water) 127 % of control; (dose: 50.0 mg/kg/injection, schedule: Q01DX009 (ip), vehicle: saline with Tween-80) 136 % of control; (dose: 50.0 mg/kg/injection, schedule: Q01DX009 (ip), vehicle: saline) 136 % of control; (dose: 60.0 mg/kg/injection, schedule: Q01DX001 (ip), vehicle: water) 144 % of control; (dose: 60.0 mg/kg/injection, schedule: Q01DX009 (ip), vehicle: other) 145 % of control; (dose: 60.0 mg/kg/injection, schedule: Q01DX009 (ip), vehicle: suspension in saline) 125 % of control. In addition, where the note is “dose: 100.0 mg/kg/injection, schedule: Q01DX009 (ip), vehicle: DMSO”, the T/C is 135 % of control. The survivor count reads like this: (dose: 100.0 mg/kg/injection, schedule: Q01DX009 (ip), vehicle: saline with Tween-80) 6 of 6; (dose: 100.0 mg/kg/injection, schedule: Q01DX009 (ip), vehicle: saline) 6 of 6; (dose: 120.0 mg/kg/injection, schedule: Q01DX009 (ip), vehicle: suspension in saline) 6 of 6.
